Assay results from publication doi:10.1101/2024.08.31.609994.
Results are given in words; binding and its absence hold for the method and conditions named. Binding seen in cells or lysates may run through a third protein. Some binding calls cover weakened binding; strength is not graded here.

Chains of the proteins cited; added tags and fusions are not shown.
UniProt P32302: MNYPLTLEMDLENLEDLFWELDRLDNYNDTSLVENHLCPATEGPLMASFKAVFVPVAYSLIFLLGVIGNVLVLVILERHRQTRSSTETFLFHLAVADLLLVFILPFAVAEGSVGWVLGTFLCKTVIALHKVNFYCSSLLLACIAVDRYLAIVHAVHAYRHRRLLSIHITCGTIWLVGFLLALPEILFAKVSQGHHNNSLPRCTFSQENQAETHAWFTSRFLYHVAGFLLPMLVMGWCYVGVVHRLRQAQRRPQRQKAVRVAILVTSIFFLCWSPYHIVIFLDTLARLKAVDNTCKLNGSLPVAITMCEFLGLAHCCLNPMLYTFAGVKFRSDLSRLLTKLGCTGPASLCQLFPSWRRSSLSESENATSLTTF

Biological target: T1, Chemokine (C-X-C motif) ligand 13 (CXCL13) (human (endogenous in Raji)) (UniProt O43927)
T1 sequence: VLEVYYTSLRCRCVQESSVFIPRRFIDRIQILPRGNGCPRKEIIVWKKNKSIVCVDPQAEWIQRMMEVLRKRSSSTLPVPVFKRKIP
Assay: co-IP

binding: binds
Substance: C-X-C chemokine receptor type 5 (CXCR5) (from UniProt P32302 1-372)
